The values below come from US9493426B2, “Quinazolinone derivatives useful as FGFR kinase modulators” (priority 2013, dated 2016).

By UniProt entry, the sequences of proteins in these tests, tags left out. Residues count along the entry.
UniProt P22455, 22-802 limits assumed: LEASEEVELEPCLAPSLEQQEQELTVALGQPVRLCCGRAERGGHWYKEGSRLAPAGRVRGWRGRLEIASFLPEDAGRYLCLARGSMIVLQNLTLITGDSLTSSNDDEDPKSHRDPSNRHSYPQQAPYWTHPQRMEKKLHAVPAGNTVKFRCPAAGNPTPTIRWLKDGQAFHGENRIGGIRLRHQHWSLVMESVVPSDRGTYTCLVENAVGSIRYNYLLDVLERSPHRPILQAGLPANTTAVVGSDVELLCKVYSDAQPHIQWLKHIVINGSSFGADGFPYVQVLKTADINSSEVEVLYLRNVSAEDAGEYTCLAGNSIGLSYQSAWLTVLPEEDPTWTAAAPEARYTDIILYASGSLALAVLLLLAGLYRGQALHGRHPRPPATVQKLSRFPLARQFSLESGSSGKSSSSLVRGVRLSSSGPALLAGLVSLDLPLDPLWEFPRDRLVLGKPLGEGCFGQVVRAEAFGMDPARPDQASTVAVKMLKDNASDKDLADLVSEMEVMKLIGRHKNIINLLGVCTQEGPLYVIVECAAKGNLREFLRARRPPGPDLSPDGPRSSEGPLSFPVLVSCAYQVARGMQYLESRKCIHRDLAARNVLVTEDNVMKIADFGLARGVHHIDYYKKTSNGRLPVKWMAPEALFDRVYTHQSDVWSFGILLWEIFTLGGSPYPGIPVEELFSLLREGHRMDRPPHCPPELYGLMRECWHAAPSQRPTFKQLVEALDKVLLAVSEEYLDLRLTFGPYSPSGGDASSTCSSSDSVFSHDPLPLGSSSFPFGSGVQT
UniProt P35968, 20-1356 limits assumed: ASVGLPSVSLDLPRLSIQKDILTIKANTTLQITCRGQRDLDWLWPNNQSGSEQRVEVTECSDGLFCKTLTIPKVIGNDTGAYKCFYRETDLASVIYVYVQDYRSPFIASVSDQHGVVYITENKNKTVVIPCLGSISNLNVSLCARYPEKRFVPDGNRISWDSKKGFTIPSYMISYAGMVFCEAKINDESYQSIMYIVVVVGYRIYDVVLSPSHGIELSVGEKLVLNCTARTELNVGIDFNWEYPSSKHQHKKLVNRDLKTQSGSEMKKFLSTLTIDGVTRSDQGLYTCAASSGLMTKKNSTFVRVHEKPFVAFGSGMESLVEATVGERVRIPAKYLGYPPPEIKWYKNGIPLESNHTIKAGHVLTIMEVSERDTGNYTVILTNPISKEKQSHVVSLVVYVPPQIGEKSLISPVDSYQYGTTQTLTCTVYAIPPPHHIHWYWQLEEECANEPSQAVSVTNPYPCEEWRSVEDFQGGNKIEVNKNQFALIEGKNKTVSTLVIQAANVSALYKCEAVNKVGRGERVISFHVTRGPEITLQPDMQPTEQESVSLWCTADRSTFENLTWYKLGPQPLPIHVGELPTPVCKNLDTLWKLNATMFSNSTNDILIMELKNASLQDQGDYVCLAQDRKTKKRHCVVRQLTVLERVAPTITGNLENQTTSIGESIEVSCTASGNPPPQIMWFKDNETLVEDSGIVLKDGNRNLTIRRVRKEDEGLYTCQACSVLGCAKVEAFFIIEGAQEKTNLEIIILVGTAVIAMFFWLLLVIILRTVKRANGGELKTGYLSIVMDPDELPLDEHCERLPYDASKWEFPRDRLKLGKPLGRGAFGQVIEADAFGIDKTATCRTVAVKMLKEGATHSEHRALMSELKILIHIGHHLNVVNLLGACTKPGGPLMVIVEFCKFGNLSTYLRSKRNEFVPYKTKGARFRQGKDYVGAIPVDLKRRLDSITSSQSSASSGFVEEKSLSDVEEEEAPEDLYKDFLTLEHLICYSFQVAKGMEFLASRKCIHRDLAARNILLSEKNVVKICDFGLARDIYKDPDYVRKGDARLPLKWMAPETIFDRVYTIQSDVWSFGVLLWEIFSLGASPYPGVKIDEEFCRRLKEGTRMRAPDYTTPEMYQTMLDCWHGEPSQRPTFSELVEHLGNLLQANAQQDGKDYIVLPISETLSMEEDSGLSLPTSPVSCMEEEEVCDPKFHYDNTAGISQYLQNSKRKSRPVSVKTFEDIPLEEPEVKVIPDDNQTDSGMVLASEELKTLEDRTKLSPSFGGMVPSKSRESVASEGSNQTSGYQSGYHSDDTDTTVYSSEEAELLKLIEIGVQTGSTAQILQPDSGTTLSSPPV
UniProt P22607, 23-806 limits assumed: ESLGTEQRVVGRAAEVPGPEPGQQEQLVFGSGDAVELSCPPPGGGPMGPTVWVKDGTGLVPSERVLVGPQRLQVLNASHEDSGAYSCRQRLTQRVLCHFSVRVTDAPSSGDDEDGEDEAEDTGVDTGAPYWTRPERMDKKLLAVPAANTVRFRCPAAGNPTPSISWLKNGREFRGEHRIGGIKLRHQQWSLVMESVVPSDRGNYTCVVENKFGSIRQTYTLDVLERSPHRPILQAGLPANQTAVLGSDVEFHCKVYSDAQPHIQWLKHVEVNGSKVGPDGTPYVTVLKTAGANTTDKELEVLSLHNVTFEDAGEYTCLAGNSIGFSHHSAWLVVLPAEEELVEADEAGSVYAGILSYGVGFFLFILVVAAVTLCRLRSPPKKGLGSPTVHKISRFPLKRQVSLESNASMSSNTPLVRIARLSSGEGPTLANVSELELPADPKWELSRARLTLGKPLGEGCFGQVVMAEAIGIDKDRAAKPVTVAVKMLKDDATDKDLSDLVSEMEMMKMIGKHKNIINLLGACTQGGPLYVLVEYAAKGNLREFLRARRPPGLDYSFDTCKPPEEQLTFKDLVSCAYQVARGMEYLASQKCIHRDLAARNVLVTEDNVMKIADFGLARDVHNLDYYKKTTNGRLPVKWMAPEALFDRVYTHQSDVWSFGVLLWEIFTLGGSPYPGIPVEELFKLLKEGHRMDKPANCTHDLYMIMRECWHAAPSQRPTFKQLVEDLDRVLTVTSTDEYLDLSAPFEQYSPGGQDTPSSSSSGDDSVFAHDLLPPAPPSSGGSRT
UniProt P11362, 22-822 limits assumed: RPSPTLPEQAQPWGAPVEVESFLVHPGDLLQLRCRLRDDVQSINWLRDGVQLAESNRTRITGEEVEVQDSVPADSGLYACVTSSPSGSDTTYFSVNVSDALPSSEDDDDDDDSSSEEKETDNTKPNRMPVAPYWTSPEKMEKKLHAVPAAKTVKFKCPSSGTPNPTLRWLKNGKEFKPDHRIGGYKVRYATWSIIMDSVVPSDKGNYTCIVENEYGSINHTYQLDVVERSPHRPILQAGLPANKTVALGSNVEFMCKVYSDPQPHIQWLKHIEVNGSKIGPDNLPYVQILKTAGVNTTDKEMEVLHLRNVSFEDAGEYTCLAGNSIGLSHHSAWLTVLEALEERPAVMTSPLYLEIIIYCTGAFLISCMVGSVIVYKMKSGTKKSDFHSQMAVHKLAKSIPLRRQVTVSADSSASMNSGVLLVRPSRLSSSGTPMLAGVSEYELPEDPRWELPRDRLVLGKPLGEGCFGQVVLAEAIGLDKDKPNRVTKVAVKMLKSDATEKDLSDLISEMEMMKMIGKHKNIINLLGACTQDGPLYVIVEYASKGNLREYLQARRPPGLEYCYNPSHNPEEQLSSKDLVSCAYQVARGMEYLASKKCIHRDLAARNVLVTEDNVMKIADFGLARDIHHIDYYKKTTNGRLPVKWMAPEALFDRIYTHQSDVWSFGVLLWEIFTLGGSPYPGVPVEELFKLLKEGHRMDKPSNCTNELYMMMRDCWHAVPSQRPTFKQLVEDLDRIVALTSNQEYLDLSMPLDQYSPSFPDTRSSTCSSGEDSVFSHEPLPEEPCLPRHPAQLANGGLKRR
UniProt P21802, 22-821 limits assumed: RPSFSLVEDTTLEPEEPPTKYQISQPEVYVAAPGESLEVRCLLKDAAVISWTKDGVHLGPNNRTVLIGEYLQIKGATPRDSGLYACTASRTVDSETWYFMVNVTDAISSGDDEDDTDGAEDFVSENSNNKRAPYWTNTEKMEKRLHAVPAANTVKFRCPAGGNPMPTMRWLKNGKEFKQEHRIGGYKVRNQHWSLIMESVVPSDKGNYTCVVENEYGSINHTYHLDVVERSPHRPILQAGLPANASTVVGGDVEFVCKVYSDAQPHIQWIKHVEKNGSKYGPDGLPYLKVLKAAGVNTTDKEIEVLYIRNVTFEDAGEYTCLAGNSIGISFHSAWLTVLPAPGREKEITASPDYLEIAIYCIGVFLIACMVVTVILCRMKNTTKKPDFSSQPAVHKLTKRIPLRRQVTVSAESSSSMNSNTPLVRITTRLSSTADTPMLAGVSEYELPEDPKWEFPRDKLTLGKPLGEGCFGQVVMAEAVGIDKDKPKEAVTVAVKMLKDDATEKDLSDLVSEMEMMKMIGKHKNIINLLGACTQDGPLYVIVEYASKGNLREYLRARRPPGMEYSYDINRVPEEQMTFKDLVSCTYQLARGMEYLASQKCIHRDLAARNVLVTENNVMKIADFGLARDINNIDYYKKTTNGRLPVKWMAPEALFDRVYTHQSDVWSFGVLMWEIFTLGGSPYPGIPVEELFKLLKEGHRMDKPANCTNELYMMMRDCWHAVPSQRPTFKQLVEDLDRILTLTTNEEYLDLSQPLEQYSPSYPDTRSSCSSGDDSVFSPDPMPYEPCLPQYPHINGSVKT

The match of structure and compound is tentative.

Details in all cases: pKd = -log Kd (M)
One assay has as its target FGFR4 (Homo sapiens, UniProt P22455). As to the kind of experiment: Enzyme binding assay (KINOMEscan) FGFR4.
The next assay deals with VEGFR2 (Homo sapiens, UniProt P35968). Description: Enzyme binding assay (KINOMEscan) VEGFR2.
The target in a further assay is FGFR3 (Homo sapiens, UniProt P22607). Description: Enzyme binding assay (KINOMEscan) FGFR3.
A further assay concerns the target FGFR1 (Homo sapiens, UniProt P11362). Description: Enzyme binding assay (KINOMEscan) FGFR1.
The next assay deals with FGFR2 (Homo sapiens, UniProt P21802). As to the kind of experiment: Enzyme binding assay (KINOMEscan) FGFR2.

`COc1cc(OC)cc(N(CCO)c2ccc3ncn(-c4ccncc4)c(=O)c3c2)c1`: on FGFR4, the FGFR4_pKd came out at 5.5. This compound also registered a VEGFR2_pKd at VEGFR2 below 5.5. The FGFR3_pKd at FGFR3 turned out to be 6.6. The same compound gave an FGFR1_pKd on FGFR1 of 6.1. This compound registered an FGFR2_pKd on FGFR2 of 6.7.
